According to PubChem BioAssay AID488851 (National Center for Advancing Translational Sciences (NCATS), 2010):
The shares of active, inactive and inconclusive entries below differ from those in the screen. Where the call is inconclusive, the potency comes from a doubtful curve fit. Activity calls are given as the source filed them. The call rests on the fitted dose curve; in most records, active means well fitted activation curve with a large enough effect; inconclusive means small, poorly fitted or top-dose-only effect; inactive means flat fitted curve, though single readings scatter.

Amino acid sequences for entries named in this document (tags omitted). A change or cut given only in a name is not applied to a line headed by its entry.
UniProt P04062: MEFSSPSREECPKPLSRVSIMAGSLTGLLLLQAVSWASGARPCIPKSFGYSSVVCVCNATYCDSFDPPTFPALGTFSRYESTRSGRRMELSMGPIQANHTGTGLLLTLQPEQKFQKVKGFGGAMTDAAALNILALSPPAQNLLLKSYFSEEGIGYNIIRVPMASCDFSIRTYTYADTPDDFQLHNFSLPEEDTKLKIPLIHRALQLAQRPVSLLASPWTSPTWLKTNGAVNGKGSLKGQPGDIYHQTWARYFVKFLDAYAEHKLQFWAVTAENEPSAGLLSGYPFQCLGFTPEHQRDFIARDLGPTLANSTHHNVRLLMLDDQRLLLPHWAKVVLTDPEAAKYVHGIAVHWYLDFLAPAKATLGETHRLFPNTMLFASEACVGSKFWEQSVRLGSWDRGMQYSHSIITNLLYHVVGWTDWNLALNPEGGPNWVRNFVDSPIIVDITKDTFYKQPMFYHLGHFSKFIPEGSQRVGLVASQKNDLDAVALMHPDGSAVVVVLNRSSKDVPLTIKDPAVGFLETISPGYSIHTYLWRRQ

The compounds below were run against Lysosomal acid glucosylceramidase (Homo sapiens) (UniProt P04062) (assay: qHTS Assay for Inhibitors and Activators of N370S glucocerebrosidase as a Potential Chaperone Treatment of Gaucher Disease: Purified Non-mutant Confirmation for Probe SAR). Conditions: purified GC, 4MU-beta-glucoside fluorescence, 40 min; series mostly up to 57.5 µM; activity change, negative = inhibition: at the top concentration.
Description: NIH Chemical Genomics Center [NCGC] NIH Molecular Libraries Probe Production Centers Network [MLPCN] MLPCN Grant: MH086442-01 Assay Submitter (PI): Wei Zheng Glucocerebrosidase (GC) catalyzes the hydrolysis of beta-glucocerebroside to glucose and ceramide in lysosomes. Mutations in the glucocerebrosidase gene result in Gaucher disease, an autosomal recessive lysosomal storage disorder. Many of the mutations encountered in patients with Gaucher disease are missense alterations that may cause misfolding, decreased stability and/or mistrafficking of this lysosomal protein. […] These inhibitors include iminosugar analogs and three non-iminosugar inhibitors identified from a previous HTS of 62,000 compounds with the wild type recombinant enzyme. However, the enhancement of enzyme activity by the chaperone action of an enzyme inhibitor must be balanced against the direct inhibition of the enzyme. An enzyme activator could also function as a chaperone by binding to the enzyme and helping to correct its misfolding and mistrafficking. While activators for GC have not yet been identified, they may have better therapeutic potential than inhibitors. Therefore the discovery and development of chemical activators may provide a new strategy for the chaperone therapy. We have optimized a new assay using N370S mutant GC derived from the spleen of a Gaucher patient. […] In addition, the MLPCN compound library has expanded, which increases the chance of finding new and better probes. This assay characterizes compound activity using purified wildtype enzyme instead of mutant enzyme from tissue homogenate. Compound activity differences may be due to the absence of endogenous cofactors found in tissue homogenate as well as inherent differences in enzyme stability and catalytic activity between the N370S and wildtype forms of the protein.
NCGC Assay Protocol Summary: This is a fluorogenic enzyme assay with 4-methylumbelliferyl-beta-D-glucopyranoside as the substrate and purified wildtype glucocerebrosidase as the enzyme preparation. Upon the hydrolysis of this fluorogenic substrate, the resulting product, […] which can be detected by a standard fluorescence plate reader. Data were normalized to the controls for basal activity (without enzyme) and 100% activity (with enzyme). The AC50 values were determined from concentration-response data modeled with the standard Hill equation. Assay buffer: 50 mM citric acid (titrated with potassium phosphate to pH 5.0), 100 mM potassium chloride, 10 mM sodium chloride, 1 mM magnesium chloride, 0.01% Tween-20. 1536-well assay protocol: (1) Add 2 ul/well of glucocerebrosidase enzyme solution (5 nM final) (2) Add 23 nL compounds in DMSO solution. The final titration was 0.5 nM to 58 uM. (3) Add 2 ul of substrate (1 mM final) (4) Incubate at 37C for 40 min. (5) Add 2 ul stop solution (1M NaOH and 1M Glycine mixture, pH 10) (6) Detect the assay plate in a ViewLux plate reader (PerkinElmer) with Ex=365 nm and Em=440nm. Keywords: Glucocerebrosidase, beta-glucosidase, Gaucher Disease, pharmacological chaperone, chaperone therapy, high throughput screening, glucocerebrosidase inhibitor, MLSMR, MLSCN, NIH Roadmap, qHTS and NCGC

Q: For `Cc1cc(C)n2ncc(C(=O)Nc3ccc(C#N)cc3)c2n1`, which Potency is on record?
A: inconclusive: 51.7 µM [activator, partial curve]

Q: With `Cc1cc(C)n2ncc(C(=O)Nc3cccc(C(F)(F)F)c3)c2n1` as the compound, how does the Potency read?
A: inconclusive: 41.1 µM [activator, partial curve]

Q: With `COc1cc(NC(=O)c2cnn3c(C)cc(C)nc23)cc(OC)c1OC` as the compound, how does the Potency read?
A: inconclusive: 130 µM [activator, partial curve]

Q: Which Potency does the source give for `O=C(Nc1cnn(Cc2ccc(F)cc2)c1)c1cnn2c(C(F)F)cc(-c3ccccc3)nc12` here?
A: inconclusive: 25.9 µM [activator, partial curve]

Q: How did the Potency turn out when `CC(=O)Nc1ccc(NC(=O)c2cnn3c(C)cc(C)nc23)cc1` was run?
A: inconclusive: 103 µM [activator, partial curve]

Q: `CC(=O)Nc1ccccc1NC(=O)c1cnn2c(C)cc(C)nc12` was tested. Which “activity change, negative = inhibition” value did it give?
A: inactive: 13.3%

Q: How did the Potency turn out when `Cc1cc(C)n2ncc(C(=O)Nc3ccc(C(C)(C)C)cc3)c2n1` was run?
A: inconclusive: 130 µM [activator, partial curve]

Q: For `COc1ccc(NC(=O)c2cnn3c(C)cc(C)nc23)cc1OC`, which “activity change, negative = inhibition” value is on record?
A: inactive: 21.2%

Q: With `Cc1cc(C)n2ncc(C(=O)NCC(C)C)c2n1` as the compound, how does the Potency read?
A: inconclusive: 65.1 µM [activator, partial curve]

Q: Which “activity change, negative = inhibition” value does the source give for `Cc1cc(C)n2ncc(C(=O)Nc3ccc(S(C)(=O)=O)cc3)c2n1` here?
A: inactive: 8.37%
